This is one part of the list.
Assays:
Assay in all cases: log2 fold change, soluble protein after heating vs DMSO (PISA); higher = thermal stabilisation; K562 lysate, 10 uM; active = over 0.2 and 3.5 SD of the protein, either way, in both replicates (recomputed)
[1] = compound: Cc1cn(-c2cc(NC(=O)c3ccc(C)c(Nc4nccc(-c5cccnc5)n4)c3)cc(C(F)(F)F)c2)cn1 [nilotinib]
Summary of the method: (§1)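 K562 pellets were dounce-homogenised in PBS pH 7.4 with 1 mM MgCl2, and the crude extract at 1 mg/mL protein was treated with 10 μM compound for 30 min. Aliquots were heated for 3 min across 48°C-58°C, pooled, and brought to 0.5% NP-40 at 4°C; soluble protein was the supernatant after 21,000xg for 90 min. Soluble protein was quantified by TMTpro 16plex LC-MS/MS with channel sums equalised, and reported as log2 fold change in thermal stability against DMSO controls, with values from duplicates.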

Protein sequences, listed by entry. Tags and fused reporters are not part of them. Lines headed by an entry give the natural chain unless they say otherwise; changes in a name come on top.
UniProt Q6IAA8, whole entry, looked up: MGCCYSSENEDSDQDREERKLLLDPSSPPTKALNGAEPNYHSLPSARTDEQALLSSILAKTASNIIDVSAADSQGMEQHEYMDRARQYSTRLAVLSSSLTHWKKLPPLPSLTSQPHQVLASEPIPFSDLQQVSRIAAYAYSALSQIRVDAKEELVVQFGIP
UniProt P50748: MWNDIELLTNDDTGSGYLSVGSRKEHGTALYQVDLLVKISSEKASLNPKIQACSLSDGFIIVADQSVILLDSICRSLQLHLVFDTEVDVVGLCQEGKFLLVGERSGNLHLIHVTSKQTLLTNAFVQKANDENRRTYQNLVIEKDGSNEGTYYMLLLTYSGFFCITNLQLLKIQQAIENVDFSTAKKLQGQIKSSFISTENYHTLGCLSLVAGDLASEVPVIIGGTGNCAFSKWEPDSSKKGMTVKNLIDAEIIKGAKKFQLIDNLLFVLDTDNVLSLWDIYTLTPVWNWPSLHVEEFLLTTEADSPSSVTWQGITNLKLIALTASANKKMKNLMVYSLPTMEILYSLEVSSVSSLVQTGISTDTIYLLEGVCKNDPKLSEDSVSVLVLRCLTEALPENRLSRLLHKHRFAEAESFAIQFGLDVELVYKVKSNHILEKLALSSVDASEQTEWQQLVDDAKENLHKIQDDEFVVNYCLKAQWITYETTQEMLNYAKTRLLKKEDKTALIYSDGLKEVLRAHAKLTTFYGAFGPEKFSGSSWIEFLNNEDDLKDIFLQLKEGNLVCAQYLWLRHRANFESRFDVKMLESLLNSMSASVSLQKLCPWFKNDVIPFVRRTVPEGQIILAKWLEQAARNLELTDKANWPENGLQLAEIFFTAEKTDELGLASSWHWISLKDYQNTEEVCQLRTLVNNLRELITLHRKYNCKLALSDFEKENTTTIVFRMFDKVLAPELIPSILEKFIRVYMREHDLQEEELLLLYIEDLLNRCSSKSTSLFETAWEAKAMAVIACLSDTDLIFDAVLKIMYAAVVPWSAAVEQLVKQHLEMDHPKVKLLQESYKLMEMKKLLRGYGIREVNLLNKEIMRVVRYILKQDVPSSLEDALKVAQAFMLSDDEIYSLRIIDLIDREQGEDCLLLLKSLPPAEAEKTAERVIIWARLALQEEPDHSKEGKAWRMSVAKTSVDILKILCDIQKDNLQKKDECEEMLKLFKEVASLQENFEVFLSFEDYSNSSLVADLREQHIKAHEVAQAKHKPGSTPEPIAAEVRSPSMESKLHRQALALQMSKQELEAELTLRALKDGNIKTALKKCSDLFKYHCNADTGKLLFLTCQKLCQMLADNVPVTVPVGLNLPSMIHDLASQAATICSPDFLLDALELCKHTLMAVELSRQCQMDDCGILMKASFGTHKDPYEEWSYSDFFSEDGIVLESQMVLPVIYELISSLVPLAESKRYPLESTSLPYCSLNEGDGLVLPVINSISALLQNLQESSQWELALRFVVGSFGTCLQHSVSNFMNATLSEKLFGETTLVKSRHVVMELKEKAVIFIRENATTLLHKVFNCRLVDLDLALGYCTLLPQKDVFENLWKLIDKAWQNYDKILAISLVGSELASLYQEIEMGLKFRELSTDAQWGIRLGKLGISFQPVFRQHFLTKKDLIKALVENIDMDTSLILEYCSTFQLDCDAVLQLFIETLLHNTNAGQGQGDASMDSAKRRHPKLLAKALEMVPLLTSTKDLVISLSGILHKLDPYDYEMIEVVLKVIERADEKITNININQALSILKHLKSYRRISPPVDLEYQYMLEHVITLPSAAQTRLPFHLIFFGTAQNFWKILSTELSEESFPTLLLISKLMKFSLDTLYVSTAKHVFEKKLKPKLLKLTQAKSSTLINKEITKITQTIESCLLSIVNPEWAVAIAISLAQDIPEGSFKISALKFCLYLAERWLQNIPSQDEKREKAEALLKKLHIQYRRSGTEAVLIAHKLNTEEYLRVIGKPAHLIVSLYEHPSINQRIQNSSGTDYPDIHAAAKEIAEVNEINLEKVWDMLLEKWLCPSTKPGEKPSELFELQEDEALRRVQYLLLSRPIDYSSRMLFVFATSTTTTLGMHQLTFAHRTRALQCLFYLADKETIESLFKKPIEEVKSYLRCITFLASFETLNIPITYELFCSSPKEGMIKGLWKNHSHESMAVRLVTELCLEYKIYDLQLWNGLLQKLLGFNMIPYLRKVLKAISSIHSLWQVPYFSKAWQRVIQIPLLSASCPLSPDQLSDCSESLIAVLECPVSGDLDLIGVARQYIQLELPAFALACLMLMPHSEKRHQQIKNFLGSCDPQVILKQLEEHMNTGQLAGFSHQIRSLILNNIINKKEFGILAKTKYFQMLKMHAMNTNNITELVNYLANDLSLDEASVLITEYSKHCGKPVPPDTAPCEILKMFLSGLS
UniProt O95235: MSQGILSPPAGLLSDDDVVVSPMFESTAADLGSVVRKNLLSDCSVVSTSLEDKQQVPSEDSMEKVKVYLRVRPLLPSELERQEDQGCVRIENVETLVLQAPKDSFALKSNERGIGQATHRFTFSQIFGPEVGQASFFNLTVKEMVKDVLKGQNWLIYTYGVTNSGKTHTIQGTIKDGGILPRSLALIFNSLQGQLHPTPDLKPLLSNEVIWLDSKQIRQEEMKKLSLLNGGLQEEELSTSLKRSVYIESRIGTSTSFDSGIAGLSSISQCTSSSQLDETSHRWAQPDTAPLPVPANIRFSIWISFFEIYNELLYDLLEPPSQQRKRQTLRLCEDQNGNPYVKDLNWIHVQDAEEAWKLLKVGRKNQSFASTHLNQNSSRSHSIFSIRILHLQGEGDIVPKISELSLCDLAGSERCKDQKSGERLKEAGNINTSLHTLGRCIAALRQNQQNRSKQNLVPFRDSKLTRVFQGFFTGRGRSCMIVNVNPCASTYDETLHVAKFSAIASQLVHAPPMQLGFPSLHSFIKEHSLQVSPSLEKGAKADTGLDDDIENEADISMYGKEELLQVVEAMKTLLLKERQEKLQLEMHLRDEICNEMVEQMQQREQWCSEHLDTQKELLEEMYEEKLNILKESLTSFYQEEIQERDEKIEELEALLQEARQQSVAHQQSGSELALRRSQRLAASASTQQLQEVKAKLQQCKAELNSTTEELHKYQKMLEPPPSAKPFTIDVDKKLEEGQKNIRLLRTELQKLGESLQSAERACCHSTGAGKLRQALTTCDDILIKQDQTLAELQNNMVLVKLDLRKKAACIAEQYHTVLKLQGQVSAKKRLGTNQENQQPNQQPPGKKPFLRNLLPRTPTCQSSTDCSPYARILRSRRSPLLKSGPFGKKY
UniProt Q969R5, whole entry, looked up: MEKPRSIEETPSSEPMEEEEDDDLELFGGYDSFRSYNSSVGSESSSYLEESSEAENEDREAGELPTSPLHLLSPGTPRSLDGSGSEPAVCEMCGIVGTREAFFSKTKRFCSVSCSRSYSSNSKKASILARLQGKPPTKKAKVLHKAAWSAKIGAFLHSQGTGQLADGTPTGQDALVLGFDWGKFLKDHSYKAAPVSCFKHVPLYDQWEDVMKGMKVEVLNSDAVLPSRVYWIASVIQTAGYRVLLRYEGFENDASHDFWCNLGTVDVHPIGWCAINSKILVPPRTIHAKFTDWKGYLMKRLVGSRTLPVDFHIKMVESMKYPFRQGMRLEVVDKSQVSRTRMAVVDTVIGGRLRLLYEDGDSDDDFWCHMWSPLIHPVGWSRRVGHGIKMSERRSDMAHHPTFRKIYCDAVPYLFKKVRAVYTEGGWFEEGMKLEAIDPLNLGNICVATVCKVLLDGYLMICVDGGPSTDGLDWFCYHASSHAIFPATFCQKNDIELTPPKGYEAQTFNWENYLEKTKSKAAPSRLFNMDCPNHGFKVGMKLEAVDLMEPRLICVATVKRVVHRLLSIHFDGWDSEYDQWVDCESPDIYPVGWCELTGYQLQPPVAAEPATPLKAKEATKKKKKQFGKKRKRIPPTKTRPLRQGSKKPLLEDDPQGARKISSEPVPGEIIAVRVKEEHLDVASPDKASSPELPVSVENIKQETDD
UniProt Q14657: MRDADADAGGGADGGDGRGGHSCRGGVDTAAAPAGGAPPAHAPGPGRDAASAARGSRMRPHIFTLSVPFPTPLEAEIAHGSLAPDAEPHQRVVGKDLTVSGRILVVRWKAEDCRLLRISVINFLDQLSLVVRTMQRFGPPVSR
UniProt Q9NQT8: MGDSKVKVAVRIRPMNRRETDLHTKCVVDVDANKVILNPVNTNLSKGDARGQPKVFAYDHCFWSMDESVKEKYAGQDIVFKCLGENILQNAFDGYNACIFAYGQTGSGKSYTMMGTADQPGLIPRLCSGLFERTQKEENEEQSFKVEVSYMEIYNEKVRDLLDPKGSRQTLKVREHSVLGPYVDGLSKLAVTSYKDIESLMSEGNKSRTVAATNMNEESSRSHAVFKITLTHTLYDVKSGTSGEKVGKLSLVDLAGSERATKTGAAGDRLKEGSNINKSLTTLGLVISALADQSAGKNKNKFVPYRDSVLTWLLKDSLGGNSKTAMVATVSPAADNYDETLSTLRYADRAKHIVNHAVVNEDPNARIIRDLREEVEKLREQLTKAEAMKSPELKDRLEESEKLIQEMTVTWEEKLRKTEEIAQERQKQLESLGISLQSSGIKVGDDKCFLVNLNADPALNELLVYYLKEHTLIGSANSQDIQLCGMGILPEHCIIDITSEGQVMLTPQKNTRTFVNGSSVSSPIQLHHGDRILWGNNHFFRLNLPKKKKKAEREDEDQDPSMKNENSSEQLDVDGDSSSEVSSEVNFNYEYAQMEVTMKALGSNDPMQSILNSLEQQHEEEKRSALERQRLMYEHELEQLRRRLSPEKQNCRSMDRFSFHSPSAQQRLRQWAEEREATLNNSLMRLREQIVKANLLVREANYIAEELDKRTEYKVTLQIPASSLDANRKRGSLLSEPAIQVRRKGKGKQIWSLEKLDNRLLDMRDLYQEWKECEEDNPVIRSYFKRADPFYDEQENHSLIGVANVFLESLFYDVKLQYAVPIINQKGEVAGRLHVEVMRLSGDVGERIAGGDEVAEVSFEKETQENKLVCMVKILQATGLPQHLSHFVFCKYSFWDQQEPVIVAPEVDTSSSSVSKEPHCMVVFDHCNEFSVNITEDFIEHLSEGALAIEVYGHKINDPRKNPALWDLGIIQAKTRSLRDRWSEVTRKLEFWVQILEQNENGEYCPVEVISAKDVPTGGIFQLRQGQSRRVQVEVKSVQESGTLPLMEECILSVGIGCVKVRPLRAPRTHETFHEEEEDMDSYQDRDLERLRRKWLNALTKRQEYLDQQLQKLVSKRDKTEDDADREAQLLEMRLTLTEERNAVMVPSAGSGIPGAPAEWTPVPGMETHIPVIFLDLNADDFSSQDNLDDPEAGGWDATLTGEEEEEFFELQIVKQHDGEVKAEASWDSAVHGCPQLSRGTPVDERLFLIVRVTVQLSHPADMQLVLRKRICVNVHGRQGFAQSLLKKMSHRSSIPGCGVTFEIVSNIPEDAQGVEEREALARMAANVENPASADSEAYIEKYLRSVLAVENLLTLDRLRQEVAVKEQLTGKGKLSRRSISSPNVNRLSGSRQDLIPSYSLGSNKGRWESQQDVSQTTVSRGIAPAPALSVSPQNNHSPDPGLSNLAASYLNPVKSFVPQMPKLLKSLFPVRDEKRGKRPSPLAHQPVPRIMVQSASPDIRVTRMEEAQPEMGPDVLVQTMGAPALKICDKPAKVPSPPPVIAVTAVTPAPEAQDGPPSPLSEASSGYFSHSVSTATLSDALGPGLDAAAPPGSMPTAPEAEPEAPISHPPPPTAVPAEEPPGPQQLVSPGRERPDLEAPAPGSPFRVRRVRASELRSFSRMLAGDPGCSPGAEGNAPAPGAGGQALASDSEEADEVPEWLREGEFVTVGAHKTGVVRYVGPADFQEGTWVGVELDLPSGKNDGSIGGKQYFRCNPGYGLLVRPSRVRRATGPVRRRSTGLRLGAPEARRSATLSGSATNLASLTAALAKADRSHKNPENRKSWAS

[2] = compound: Cc1nc(Nc2n[nH]c3c2CN(C(=O)N[C@H](CN(C)C)c2ccccc2)C3(C)C)c2sccc2n1
Summary of the method: as §1

[3] = compound: Cc1nc(Nc2ncc(C(=O)Nc3c(C)cccc3Cl)s2)cc(N2CCN(CCO)CC2)n1 [dasatinib]
Summary of the method: as §1

[4] = compound: Cc1ncc(-c2ccnc(Nc3ccc(S(C)(=O)=O)cc3)n2)n1C(C)C
Summary of the method: as §1

[5] = compound: Cn1cc(-c2ccc3c(c2)CCN3C(=O)Cc2cccc(C(F)(F)F)c2)c2c(N)ncnc21
Summary of the method: as §1

[6] = compound: Cn1cc(CNCC2CCN(c3ncc(C(=O)NO)cn3)CC2)c2ccccc21 [quisinostat]
Summary of the method: as §1

[7] = compound: Cn1cncc1[C@@](N)(c1ccc(Cl)cc1)c1ccc2c(c1)c(-c1cccc(Cl)c1)cc(=O)n2C [tipifarnib]
Summary of the method: as §1

[8] = compound: NC(=O)Nc1cc(-c2cccc(F)c2)sc1C(=O)N[C@H]1CCCNC1
Summary of the method: as §1

[9] = compound: NC(=O)c1cnc(N[C@@H]2CCCC[C@@H]2N)nc1Nc1cccc(-n2nccn2)c1
Summary of the method: as §1

[10] = compound: NC1(c2ccc(-c3nc4ccn5c(=O)[nH]nc5c4cc3-c3ccccc3)cc2)CCC1
Summary of the method: as §1

Measured: log2 fold change

KMT2D isoform 3 (UniProt O14686)
inactive: [1] 0.029 | [2] -0.012 | [3] -0.009 | [4] 0.004 | [5] -0.004 | [6] -0.028 | [7] -0.043 | [8] 0.021 | [9] 0.001 | [10] 0.012

KYAT1 (UniProt Q16773)
inactive: [1] 0.028 | [2] 0.012 | [3] 0.006 | [4] -0.007 | [5] 0.008 | [6] -0.026 | [7] -0.008 | [8] 0.008 | [9] -0.019 | [10] 0.001

KLHL18 (UniProt O94889)
inactive: [1] 0 | [2] -0.008 | [3] -0.026 | [4] -0.034 | [5] 0.051 | [6] -0.31 | [7] -0.015 | [8] -0.035 | [9] 0.02 | [10] 0.053

LAMTOR1 (UniProt Q6IAA8)
inactive: [1] 0.095 | [2] 0.014 | [3] 0.003 | [4] 0.062 | [5] 0.048 | [6] 0.007 | [7] 0.048 | [8] 0.023 | [9] -0.066 | [10] 0.006

KNTC1 (UniProt P50748)
inactive: [1] -0.019 | [2] 0.011 | [3] -0.046 | [4] -0.006 | [5] 0.029 | [6] -0.047 | [7] -0.013 | [8] 0.025 | [9] 0.015 | [10] -0.036

KIF20A (UniProt O95235)
inactive: [1] 0.028 | [2] -0.076 | [3] -0.063 | [4] -0.029 | [5] -0.006 | [6] -0.21 | [7] 0.004 | [8] -0.012

KTN1 (UniProt Q86UP2)
inactive: [1] -0.008 | [2] 0 | [3] -0.007 | [4] 0.016 | [5] -0.005 | [6] -0.035 | [7] -0.002 | [8] 0.002 | [9] 0 | [10] -0.002

KDM6A (UniProt O15550)
inactive: [1] 0.009 | [2] 0.033 | [3] 0.041 | [4] -0.009 | [5] 0.015 | [6] -0.062 | [7] -0.031 | [8] 0.002 | [9] -0.017 | [10] 0.009

L3MBTL2 (UniProt Q969R5)
inactive: [1] 0.023 | [2] 0.139 | [3] 0.089 | [4] 0.034 | [5] 0.027 | [6] 0.089 | [7] -0.215 | [8] -0.034

KIF4A (UniProt O95239)
inactive: [1] -0.02 | [2] 0.029 | [3] -0.011 | [4] 0.014 | [5] 0.037 | [6] -0.104 | [7] 0.017 | [8] 0.042 | [9] -0.014 | [10] 0.014

KPNA1 (UniProt P52294)
inactive: [1] -0.025 | [2] -0.01 | [3] -0.04 | [4] -0.009 | [5] -0.002 | [6] -0.038 | [7] -0.038 | [8] 0.024 | [9] 0.011 | [10] 0.008

KHK isoform 2 (UniProt P50053)
inactive: [1] -0.004 | [2] 0.035 | [3] -0.075 | [4] -0.02 | [5] -0.035 | [6] -0.021 | [7] -0.043 | [8] -0.019 | [9] -0.018 | [10] -0.023

LARP4B (UniProt Q92615)
inactive: [1] -0.05 | [2] 0.03 | [3] -0.053 | [4] -0.02 | [5] 0.012 | [6] -0.026 | [7] 0 | [8] 0.026 | [9] -0.001 | [10] 0.008

L3HYPDH (UniProt Q96EM0)
inactive: [1] 0.019 | [2] 0.015 | [3] 0.073 | [4] 0.001 | [5] -0.003 | [6] -0.053 | [7] -0.002 | [8] 0.033 | [9] 0.015 | [10] 0.009

KIAA0930 isoform 2 (UniProt Q6ICG6)
inactive: [1] -0.041 | [2] 0.05 | [3] 0.202 | [4] -0.109 | [5] -0.021 | [6] 0.03 | [7] -0.037 | [8] -0.026 | [9] -0.047

KLHDC3 (UniProt Q9BQ90)
inactive: [1] 0.079 | [2] 0.058 | [3] 0.038 | [4] -0.119 | [5] 0.018 | [6] -0.087 | [7] -0.003 | [8] 0.057 | [9] 0.007 | [10] -0.148

KIF2A isoform 4 (UniProt O00139)
inactive: [1] 0.021 | [2] -0.015 | [3] -0.022 | [4] -0.02 | [5] 0.042 | [6] -0.005 | [7] 0.015 | [8] 0.021 | [9] 0.017 | [10] 0.006

KIF23 isoform 2 (UniProt Q02241)
inactive: [1] -0.005 | [2] -0.039 | [3] -0.014 | [4] 0.002 | [5] 0.015 | [6] -0.108 | [7] 0.021 | [8] -0.001 | [9] 0.033 | [10] -0.007

KIF15 (UniProt Q9NS87)
inactive: [1] -0.038 | [2] -0.003 | [3] -0.03 | [4] 0.052 | [5] 0.044 | [6] -0.058 | [7] 0.008 | [8] 0.003 | [9] 0.011 | [10] 0

KIAA1522 isoform 2 (UniProt Q9P206)
inactive: [1] 0.031 | [2] -0.026 | [3] -0.02 | [4] -0.005 | [5] -0.028 | [6] 0.014 | [7] 0.036 | [8] -0.041 | [9] 0.021 | [10] 0

KPNA4 (UniProt O00629)
inactive: [1] -0.013 | [2] 0.006 | [3] 0.063 | [4] 0.018 | [5] 0.003 | [6] -0.088 | [7] -0.033 | [8] -0.012 | [9] 0 | [10] -0.058

KLC2 (UniProt Q9H0B6)
inactive: [1] 0.016 | [2] 0.013 | [3] -0.062 | [4] 0.067 | [5] 0.041 | [6] -0.017 | [7] 0.063 | [8] 0.012 | [9] 0.013 | [10] -0.036

KIAA0319L (UniProt Q8IZA0)
inactive: [1] 0 | [2] -0.038 | [3] 0.035 | [4] -0.019 | [5] 0.011 | [6] 0.049 | [7] -0.031 | [8] 0.007 | [9] -0.009 | [10] 0.009

KPNA6 (UniProt O60684)
inactive: [1] -0.035 | [2] 0.012 | [3] -0.009 | [4] 0.003 | [5] 0.013 | [6] -0.035 | [7] -0.011 | [8] 0.004 | [9] 0.001 | [10] 0

KIF21B (UniProt O75037)
inactive: [1] -0.017 | [2] -0.055 | [3] -0.134 | [4] -0.191 | [5] -0.005 | [6] -0.364 | [7] 0.043 | [8] 0.047 | [9] 0.052

KRIT1 (UniProt O00522)
inactive: [1] -0.011 | [2] -0.04 | [3] 0.027 | [4] 0.041 | [5] -0.048 | [6] -0.147 | [7] -0.135 | [8] 0.09 | [9] 0.021 | [10] -0.005

KIF1B isoform 2 (UniProt O60333)
inactive: [1] -0.004 | [2] 0.012 | [3] -0.026 | [4] 0.025 | [5] 0.026 | [6] -0.03 | [7] 0.008 | [8] 0.01 | [9] 0.018 | [10] 0.019

LAGE3 (UniProt Q14657)
inactive: [1] -0.065 | [2] 0.186 | [3] 0.006 | [4] -0.055 | [5] 0.021 | [6] -0.03 | [7] 0.1 | [8] 0.013 | [9] 0.017 | [10] 0.084

LAMB1 (UniProt P07942)
inactive: [1] -0.012 | [2] 0.034 | [3] 0.008 | [4] 0.023 | [5] 0.026 | [6] -0.031 | [7] 0.008 | [8] 0.024 | [9] 0.037 | [10] 0.005

KIF13B (UniProt Q9NQT8)
inactive: [1] 0.055 | [2] 0.001 | [3] -0.006 | [4] -0.02 | [5] 0.002 | [6] 0.008 | [7] 0.028 | [8] 0.017 | [9] 0.007 | [10] 0.029

Nine neighbouring records out of the list so far:
KLC2 (UniProt Q9H0B6)
inactive: [1] 0.016 | [2] 0.013 | [3] -0.062 | [4] 0.067 | [5] 0.041 | [6] -0.017 | [7] 0.063 | [8] 0.012 | [9] 0.013 | [10] -0.036

KIAA0319L (UniProt Q8IZA0)
inactive: [1] 0 | [2] -0.038 | [3] 0.035 | [4] -0.019 | [5] 0.011 | [6] 0.049 | [7] -0.031 | [8] 0.007 | [9] -0.009 | [10] 0.009

KPNA6 (UniProt O60684)
inactive: [1] -0.035 | [2] 0.012 | [3] -0.009 | [4] 0.003 | [5] 0.013 | [6] -0.035 | [7] -0.011 | [8] 0.004 | [9] 0.001 | [10] 0

KIF21B (UniProt O75037)
inactive: [1] -0.017 | [2] -0.055 | [3] -0.134 | [4] -0.191 | [5] -0.005 | [6] -0.364 | [7] 0.043 | [8] 0.047 | [9] 0.052

KRIT1 (UniProt O00522)
inactive: [1] -0.011 | [2] -0.04 | [3] 0.027 | [4] 0.041 | [5] -0.048 | [6] -0.147 | [7] -0.135 | [8] 0.09 | [9] 0.021 | [10] -0.005

KIF1B isoform 2 (UniProt O60333)
inactive: [1] -0.004 | [2] 0.012 | [3] -0.026 | [4] 0.025 | [5] 0.026 | [6] -0.03 | [7] 0.008 | [8] 0.01 | [9] 0.018 | [10] 0.019

LAGE3 (UniProt Q14657)
inactive: [1] -0.065 | [2] 0.186 | [3] 0.006 | [4] -0.055 | [5] 0.021 | [6] -0.03 | [7] 0.1 | [8] 0.013 | [9] 0.017 | [10] 0.084

LAMB1 (UniProt P07942)
inactive: [1] -0.012 | [2] 0.034 | [3] 0.008 | [4] 0.023 | [5] 0.026 | [6] -0.031 | [7] 0.008 | [8] 0.024 | [9] 0.037 | [10] 0.005

KIF13B (UniProt Q9NQT8)
inactive: [1] 0.055 | [2] 0.001 | [3] -0.006 | [4] -0.02 | [5] 0.002 | [6] 0.008 | [7] 0.028 | [8] 0.017 | [9] 0.007 | [10] 0.029

Source: the supplement of paper PMC10849652
